Data published in the supplement of paper PMC11006884.
What follows is the remainder of the data, with few or none of the targets with a hit. This is a noisy data set. The list shows a part of the results, in another mix than the full data.

Protein sequences, listed by entry. Tags and fused reporters are not part of them. Lines headed by an entry give the natural chain unless they say otherwise; changes in a name come on top.
UniProt Q5BKX5: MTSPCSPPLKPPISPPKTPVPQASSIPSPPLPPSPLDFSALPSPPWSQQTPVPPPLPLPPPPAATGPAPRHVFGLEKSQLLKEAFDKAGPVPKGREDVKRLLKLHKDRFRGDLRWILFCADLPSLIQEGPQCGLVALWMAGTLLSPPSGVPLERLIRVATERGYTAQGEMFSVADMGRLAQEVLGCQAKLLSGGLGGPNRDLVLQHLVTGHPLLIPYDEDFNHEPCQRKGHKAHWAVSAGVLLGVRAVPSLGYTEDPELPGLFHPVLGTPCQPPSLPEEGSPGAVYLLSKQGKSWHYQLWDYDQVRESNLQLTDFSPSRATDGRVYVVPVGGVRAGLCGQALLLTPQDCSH
UniProt Q5H9R7: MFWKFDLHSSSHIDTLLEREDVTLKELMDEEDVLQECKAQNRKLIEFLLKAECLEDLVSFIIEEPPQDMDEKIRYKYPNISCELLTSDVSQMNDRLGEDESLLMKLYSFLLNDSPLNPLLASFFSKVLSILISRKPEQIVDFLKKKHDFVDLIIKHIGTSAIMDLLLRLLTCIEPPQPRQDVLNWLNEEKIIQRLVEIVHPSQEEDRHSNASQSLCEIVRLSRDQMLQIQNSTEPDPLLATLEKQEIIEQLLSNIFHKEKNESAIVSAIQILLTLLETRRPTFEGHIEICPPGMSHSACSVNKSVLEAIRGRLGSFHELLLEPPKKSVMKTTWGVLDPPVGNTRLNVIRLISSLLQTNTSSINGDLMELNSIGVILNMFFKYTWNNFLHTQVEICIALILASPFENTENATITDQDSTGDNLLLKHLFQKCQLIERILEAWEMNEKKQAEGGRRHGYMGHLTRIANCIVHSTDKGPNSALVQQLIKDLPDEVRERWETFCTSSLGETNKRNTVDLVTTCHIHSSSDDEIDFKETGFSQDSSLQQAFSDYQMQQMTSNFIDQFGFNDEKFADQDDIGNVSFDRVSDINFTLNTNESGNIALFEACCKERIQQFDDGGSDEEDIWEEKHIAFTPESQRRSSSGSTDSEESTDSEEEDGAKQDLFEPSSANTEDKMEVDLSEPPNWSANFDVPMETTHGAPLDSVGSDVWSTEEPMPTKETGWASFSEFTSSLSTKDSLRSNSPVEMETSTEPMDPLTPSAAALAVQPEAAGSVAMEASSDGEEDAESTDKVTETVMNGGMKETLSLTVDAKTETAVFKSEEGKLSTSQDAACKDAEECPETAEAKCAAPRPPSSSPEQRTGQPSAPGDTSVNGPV
UniProt Q5JTD0: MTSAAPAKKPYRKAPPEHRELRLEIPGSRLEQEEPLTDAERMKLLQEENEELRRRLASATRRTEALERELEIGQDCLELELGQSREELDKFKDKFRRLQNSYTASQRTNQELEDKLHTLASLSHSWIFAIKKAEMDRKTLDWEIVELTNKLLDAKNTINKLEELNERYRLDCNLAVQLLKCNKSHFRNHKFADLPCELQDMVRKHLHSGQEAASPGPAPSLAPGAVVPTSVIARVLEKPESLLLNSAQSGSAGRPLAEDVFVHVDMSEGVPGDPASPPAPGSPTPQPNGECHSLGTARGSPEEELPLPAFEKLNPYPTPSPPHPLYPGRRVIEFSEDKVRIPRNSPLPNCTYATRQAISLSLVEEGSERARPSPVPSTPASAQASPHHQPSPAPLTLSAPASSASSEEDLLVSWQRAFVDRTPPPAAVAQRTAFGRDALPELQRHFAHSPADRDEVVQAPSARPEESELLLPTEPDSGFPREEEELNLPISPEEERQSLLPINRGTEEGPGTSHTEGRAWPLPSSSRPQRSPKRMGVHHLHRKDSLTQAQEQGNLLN
UniProt Q5VT52: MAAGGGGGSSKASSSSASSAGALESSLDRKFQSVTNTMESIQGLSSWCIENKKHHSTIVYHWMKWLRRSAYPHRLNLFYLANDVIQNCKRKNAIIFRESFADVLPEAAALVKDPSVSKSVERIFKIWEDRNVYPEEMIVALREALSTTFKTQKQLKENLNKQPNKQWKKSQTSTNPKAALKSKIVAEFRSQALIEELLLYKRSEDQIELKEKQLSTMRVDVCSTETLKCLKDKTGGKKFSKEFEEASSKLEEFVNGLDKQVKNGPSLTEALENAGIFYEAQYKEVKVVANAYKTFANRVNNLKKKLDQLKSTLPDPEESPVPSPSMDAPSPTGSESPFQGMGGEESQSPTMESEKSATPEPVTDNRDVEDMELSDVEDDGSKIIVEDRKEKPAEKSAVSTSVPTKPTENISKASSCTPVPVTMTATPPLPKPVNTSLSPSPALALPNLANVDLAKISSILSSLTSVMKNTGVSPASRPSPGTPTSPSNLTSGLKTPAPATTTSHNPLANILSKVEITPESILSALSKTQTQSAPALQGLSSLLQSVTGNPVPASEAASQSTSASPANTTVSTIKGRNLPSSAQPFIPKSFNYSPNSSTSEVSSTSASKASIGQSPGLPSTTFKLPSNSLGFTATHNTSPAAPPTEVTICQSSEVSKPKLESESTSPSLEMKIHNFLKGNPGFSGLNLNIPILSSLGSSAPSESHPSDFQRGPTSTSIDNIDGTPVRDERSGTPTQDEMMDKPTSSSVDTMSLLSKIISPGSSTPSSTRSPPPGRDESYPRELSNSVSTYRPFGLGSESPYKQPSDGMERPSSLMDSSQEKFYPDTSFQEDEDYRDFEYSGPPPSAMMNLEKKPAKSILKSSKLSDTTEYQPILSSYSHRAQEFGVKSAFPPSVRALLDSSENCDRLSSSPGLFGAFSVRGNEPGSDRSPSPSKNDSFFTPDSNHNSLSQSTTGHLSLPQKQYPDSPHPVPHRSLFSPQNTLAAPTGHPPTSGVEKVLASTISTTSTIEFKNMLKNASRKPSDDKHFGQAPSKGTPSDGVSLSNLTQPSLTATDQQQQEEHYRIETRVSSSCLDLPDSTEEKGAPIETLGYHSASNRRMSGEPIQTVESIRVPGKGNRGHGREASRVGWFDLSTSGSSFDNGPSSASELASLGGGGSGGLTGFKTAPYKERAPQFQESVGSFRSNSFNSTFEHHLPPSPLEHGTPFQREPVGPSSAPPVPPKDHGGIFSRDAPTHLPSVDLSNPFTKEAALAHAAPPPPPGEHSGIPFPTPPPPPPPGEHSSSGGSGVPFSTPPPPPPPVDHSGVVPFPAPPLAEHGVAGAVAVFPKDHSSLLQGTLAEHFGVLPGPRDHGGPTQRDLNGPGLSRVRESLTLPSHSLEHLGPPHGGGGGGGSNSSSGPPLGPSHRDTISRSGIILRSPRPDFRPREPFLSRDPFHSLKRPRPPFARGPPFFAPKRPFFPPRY
UniProt Q66K74: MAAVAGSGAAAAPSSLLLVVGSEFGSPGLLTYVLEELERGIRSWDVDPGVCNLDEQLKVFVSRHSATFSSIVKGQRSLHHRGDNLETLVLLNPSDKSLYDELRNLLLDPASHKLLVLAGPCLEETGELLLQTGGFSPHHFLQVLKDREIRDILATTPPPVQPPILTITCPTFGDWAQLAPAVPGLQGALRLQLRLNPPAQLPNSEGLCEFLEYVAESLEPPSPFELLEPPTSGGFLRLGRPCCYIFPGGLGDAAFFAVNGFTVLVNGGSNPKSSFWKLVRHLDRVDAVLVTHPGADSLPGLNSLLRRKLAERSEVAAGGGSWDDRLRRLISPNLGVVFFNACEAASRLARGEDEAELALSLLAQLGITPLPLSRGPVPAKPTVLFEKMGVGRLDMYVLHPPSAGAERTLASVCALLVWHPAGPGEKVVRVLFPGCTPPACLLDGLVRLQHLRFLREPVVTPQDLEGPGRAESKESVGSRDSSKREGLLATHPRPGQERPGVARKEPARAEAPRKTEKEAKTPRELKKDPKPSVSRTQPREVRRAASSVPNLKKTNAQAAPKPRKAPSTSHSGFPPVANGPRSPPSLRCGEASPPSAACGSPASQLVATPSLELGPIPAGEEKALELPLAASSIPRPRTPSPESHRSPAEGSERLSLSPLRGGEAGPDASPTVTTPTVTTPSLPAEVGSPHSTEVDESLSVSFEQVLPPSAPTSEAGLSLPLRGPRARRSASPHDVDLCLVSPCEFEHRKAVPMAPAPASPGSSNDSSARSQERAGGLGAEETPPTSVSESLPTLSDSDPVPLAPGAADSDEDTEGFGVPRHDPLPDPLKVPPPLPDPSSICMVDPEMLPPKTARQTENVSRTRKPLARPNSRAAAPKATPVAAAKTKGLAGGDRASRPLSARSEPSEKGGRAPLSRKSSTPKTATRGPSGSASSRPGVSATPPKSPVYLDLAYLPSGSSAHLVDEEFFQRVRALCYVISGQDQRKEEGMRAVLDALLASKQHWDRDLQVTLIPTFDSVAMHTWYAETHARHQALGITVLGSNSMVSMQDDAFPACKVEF
UniProt Q6DKJ4: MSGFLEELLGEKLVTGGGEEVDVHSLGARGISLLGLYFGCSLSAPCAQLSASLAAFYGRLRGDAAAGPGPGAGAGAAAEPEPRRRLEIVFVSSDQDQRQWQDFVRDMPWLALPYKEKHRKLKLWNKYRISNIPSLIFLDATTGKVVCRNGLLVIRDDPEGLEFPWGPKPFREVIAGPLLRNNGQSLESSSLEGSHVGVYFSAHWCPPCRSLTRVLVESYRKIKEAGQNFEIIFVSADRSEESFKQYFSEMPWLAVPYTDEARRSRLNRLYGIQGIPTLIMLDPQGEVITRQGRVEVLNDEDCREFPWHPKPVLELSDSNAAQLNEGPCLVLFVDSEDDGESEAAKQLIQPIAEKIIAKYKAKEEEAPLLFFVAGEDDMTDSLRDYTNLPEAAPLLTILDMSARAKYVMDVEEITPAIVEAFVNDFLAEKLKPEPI
UniProt Q6P6C2: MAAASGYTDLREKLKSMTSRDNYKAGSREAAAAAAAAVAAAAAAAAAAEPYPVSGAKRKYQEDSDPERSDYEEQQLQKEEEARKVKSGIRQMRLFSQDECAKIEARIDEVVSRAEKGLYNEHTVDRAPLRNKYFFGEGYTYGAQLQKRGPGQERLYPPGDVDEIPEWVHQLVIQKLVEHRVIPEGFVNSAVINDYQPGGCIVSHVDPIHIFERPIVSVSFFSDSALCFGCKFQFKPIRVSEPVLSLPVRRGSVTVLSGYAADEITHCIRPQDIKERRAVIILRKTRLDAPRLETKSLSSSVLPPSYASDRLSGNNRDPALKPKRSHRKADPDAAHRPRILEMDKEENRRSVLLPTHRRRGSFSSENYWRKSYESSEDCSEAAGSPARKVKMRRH
UniProt Q5SQN1: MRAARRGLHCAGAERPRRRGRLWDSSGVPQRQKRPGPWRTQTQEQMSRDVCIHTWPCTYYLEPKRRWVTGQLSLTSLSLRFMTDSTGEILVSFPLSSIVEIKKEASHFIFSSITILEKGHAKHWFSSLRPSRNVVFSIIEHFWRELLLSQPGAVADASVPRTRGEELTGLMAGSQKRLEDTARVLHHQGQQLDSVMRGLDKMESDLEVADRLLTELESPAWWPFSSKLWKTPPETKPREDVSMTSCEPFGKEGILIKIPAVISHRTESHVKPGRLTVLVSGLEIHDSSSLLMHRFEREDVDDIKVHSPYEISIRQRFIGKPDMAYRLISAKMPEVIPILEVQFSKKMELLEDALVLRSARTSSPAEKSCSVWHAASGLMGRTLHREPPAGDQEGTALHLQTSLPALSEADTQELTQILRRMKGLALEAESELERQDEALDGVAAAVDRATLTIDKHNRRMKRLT
UniProt Q6DN90: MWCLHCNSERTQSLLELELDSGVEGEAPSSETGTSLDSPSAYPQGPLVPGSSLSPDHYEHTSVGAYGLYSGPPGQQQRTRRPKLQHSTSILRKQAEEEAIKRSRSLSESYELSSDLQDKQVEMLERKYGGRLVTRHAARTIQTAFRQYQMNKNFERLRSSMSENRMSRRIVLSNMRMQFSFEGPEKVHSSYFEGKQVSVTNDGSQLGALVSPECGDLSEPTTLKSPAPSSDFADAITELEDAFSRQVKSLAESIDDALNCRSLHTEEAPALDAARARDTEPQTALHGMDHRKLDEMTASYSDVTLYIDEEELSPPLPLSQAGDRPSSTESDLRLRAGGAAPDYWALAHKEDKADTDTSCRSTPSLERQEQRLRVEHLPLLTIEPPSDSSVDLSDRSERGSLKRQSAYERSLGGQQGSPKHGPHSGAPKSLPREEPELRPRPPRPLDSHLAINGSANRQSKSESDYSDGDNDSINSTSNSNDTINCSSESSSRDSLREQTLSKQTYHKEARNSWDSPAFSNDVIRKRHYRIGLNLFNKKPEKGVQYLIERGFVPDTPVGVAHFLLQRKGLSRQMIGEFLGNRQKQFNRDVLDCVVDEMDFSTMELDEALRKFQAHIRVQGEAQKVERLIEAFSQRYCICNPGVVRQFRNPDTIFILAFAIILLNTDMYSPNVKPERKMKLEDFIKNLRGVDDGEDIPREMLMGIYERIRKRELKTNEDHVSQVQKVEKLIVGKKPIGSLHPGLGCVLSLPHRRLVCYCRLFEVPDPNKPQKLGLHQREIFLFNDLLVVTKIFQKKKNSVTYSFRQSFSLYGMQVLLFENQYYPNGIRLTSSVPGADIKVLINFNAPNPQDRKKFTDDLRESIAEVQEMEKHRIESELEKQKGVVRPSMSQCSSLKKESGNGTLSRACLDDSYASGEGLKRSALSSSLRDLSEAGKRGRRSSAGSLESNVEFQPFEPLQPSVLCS

Compound: COC(=O)/C=C/c1ccccc1 [methyl cinnamate]
Test: log2 ratio of iodoacetamide-alkyne labeling of the cysteine site, DMSO over compound (competition); higher = stronger covalent engagement of the cysteine by the compound, active = 1 or more
Settings: 500 µM; treatment time 1 h; system: HEK293T cell lysate
Summary of the method: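 Electrophile (500 µM) or vehicle was added to HEK293T lysate (2 mg/mL) for 1 h at ambient temperature before iodoacetamide alkyne labelling (1 h) and click coupling to sCIP-TMT reagents. After pooling, overnight trypsin digestion at 37 °C, streptavidin enrichment and acid elution, peptides were measured by Orbitrap Eclipse LC-MS/MS with FAIMS and quantified in FragPipe. Each cysteine's log2 competition ratio compares mean control-channel with mean compound-channel reporter intensity, control over compound. Data came from duplicate channels across three replicates, excluding cysteines quantified in only one replicate.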

Target | log2 ratio of iodoacetamide-alkyne labeling
HIST2H3A C111 (UniProt Q71DI3) | inactive: -0.13
UniProt Q5JTC6_C1060 | inactive: 0.146
UniProt Q63HQ0_C157 | inactive: 0.312
BCORL1 C617 (UniProt Q5H9F3) | inactive: 0.177
RSBN1L C10 (UniProt Q6PCB5) | inactive: 0.13
TTC37 C600 (UniProt Q6PGP7) | inactive: -0.00516
FAM199X C235 (UniProt Q6PEV8) | inactive: 0.0165
C19orf54 C226 (UniProt Q5BKX5) | inactive: -0.0754
UniProt Q5H9R7_C500 | inactive: -0.179
FAHD2B C301 (UniProt Q6P2I3) | inactive: -0.129
RIF1 C1692 (UniProt Q5UIP0) | inactive: 0.276
COQ5 C244 (UniProt Q5HYK3) | inactive: 0.143
TMEM214 C392 (UniProt Q6NUQ4) | inactive: 0.0654
MTHFD1L C779 (UniProt Q6UB35) | inactive: 0.247
TJAP1 C172 (UniProt Q5JTD0) | inactive: 0.188
RPRD2 C88 (UniProt Q5VT52) | inactive: -0.00463
UniProt Q5H9L4_C158 | inactive: 0.159
TAPT1 C562 (UniProt Q6NXT6) | inactive: 0.133
MAP1S C342 (UniProt Q66K74) | inactive: -0.0209

3 entries from above, as tab-separated lines.
Target	log2 ratio of iodoacetamide-alkyne labeling
UniProt Q5H9R7_C500	inactive: -0.179
FAHD2B C301 (UniProt Q6P2I3)	inactive: -0.129
RIF1 C1692 (UniProt Q5UIP0)	inactive: 0.276

(further entries)

Target | log2 ratio of iodoacetamide-alkyne labeling
ANKRD40 C209 (UniProt Q6AI12) | inactive: 0.306
KANK2 C249 (UniProt Q63ZY3) | inactive: 0.135
NXN C147 (UniProt Q6DKJ4) | inactive: 0.226
ZNF746 C425 (UniProt Q6NUN9) | inactive: 0.0575
ZNF318 C242 (UniProt Q5VUA4) | inactive: -0.0335
ATPAF1 C321 (UniProt Q5TC12) | inactive: 0.39
ALKBH5 C267 (UniProt Q6P6C2) | inactive: 0.074
UniProt Q6P1J9_C397 | inactive: 0.182
LARP1 C238 (UniProt Q6PKG0) | inactive: 0.558
UniProt Q5JSZ5_C1610 | inactive: -0.0413
SNAP47 C369 (UniProt Q5SQN1) | inactive: 0.214
DHX57 C65 (UniProt Q6P158) | inactive: 0.109
PDE4DIP C617 (UniProt Q5VU43) | inactive: 0.318
RPRD2 C1071 (UniProt Q5VT52) | inactive: -0.0773
IQSEC1 C260 (UniProt Q6DN90) | inactive: 0.0889
NUP188 C1294 (UniProt Q5SRE5) | inactive: 0.374
UniProt Q5T440_C170 | inactive: 0.333
LIN9 C435 (UniProt Q5TKA1) | inactive: 0.115
UniProt Q5H9R7_C844 | inactive: -0.0134
